Assay results published in article PMC7819943, “Rice protein-binding microarrays: a tool to detect cis-acting elements near promoter regions in rice”.
This is one part of the list.

Protein sequences, listed by entry. Tags and fused reporters are not part of them.
UniProt Q0JBA9, entry or part of it: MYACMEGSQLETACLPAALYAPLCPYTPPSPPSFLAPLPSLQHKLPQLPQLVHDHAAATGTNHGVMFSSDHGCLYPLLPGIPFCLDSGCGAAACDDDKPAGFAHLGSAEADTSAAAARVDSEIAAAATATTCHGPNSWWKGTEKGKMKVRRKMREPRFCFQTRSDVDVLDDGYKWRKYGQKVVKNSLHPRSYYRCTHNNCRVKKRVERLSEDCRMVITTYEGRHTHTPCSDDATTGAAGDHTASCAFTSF

molecular target: OsWRKY34 (Oryza sativa, UniProt Q0JBA9 1-250); experiment: protein-binding microarray (RPBM); PBS, 2% BSA, 51.3 ng/ul salmon testes DNA, 50 uM zinc acetate, 200 nM TF, 25 C, 1 h; high values mean tight binding; conditions: protein: recombinant; tags: N-terminal polyhistidine and DsRed monomer fusion (pET32a); label: CyDye5-dUTP incorporated in the synthesized complementary strand; 3' TTTTT single-stranded linker to array surface; dsDNA, one strand shown
How it was run: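 Transcription factors were made in E. coli BL21-CodonPlus as N-terminal fusions to a polyhistidine tag and DsRed, then purified on Ni–NTA. After primer extension with Cy5-dUTP and blocking with 2% BSA, a custom Agilent array was exposed for 1 h at 25 °C to 200 nM protein in PBS, 2% BSA, salmon testes DNA and 50 µM zinc acetate. Washed arrays were scanned on an Axon 4000B, and the binding signal is per-feature fluorescence intensity in arbitrary units.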

Sequence | binding signal
GCACCACTCTCCTCTCTCTTGGTTCCATGCCTCGCCGTTTCGGAGTCACCTAGTGCAG | 10000 fluorescence intensity (a.u.)
CGGCGCTCGGTTACACACACAGCCGATCCTCACCGTCCGTCGGAGTCACCTAGTGCAG | 9380 fluorescence intensity (a.u.)
GGTCTCCCGGCGCCGACCTCGGCTTCTTCCTCCACCTCTCCGGAGTCACCTAGTGCAG | 9800 fluorescence intensity (a.u.)
GGCAACTACACAGGATCCTGACCTGAATTTTCAGATGGGGCGGAGTCACCTAGTGCAG | 8990 fluorescence intensity (a.u.)
GGATTCCGCCCCTGGGTTGTTTATTGTGTGATTCTTTTTTCGGAGTCACCTAGTGCAG | 9400 fluorescence intensity (a.u.)
GCCTGTCACTGCCCTCGTCGCATCGTCGTCGCTGTCGTCGCGGAGTCACCTAGTGCAG | 8100 fluorescence intensity (a.u.)
ATGGAGATGGGGTGGGTTGGATTTGGATTGGATTTCTGCCCGGAGTCACCTAGTGCAG | 16300 fluorescence intensity (a.u.)
CCATCTATATCTATCTATTACTATCTATATCTTCTTTATACGGAGTCACCTAGTGCAG | 9130 fluorescence intensity (a.u.)
ACCCAGTCAAACTTCTATGAGAAGCTGTCCACTGTCATCGCGGAGTCACCTAGTGCAG | 8060 fluorescence intensity (a.u.)
TATTACGTGTGCCGTTCATATGCAGGGAATGGGGTTTTGACGGAGTCACCTAGTGCAG | 14400 fluorescence intensity (a.u.)
TGTCAAACTACAACTTACTTTCTCGTTTTCTGTTAATATACGGAGTCACCTAGTGCAG | 9230 fluorescence intensity (a.u.)
TCCTTGCTTATCAACACGTACGTTGCGTTTCTTGGCAATGCGGAGTCACCTAGTGCAG | 8020 fluorescence intensity (a.u.)
GAGCGCTCTTCCCGCCAAATTTGGCTCGGCCGCGCGCGCCCGGAGTCACCTAGTGCAG | 8340 fluorescence intensity (a.u.)
ATTCAATTTCCCCACCTACCTTCGCATCTCAACCAATCACCGGAGTCACCTAGTGCAG | 9740 fluorescence intensity (a.u.)
GGAGACTTGTACCAGTACTTTTACCTAACCTCACAATACCCGGAGTCACCTAGTGCAG | 9030 fluorescence intensity (a.u.)
ACCCACTAATCCAGCCAAGTAATGCCGATTTTTACCCCACCGGAGTCACCTAGTGCAG | 8310 fluorescence intensity (a.u.)
TCGCCAGTTCCTAACGCATCGTCTTGCCAGGCCTCAATATCGGAGTCACCTAGTGCAG | 8490 fluorescence intensity (a.u.)
TTTTTTTTTGTTATTGTGTTGCGTTTCCTCCTAGTAAACACGGAGTCACCTAGTGCAG | 10100 fluorescence intensity (a.u.)
GCCCTTTCTGCAGATCCGAACATAACTACTGCTATCCTTACGGAGTCACCTAGTGCAG | 8680 fluorescence intensity (a.u.)
CCCCATCCGTCCCACTGACATCCCGGCCCCACCATACCGTCGGAGTCACCTAGTGCAG | 8320 fluorescence intensity (a.u.)
TGCATTACTGCGAAGGTCATTTTTGTTTTGGATCATAGCACGGAGTCACCTAGTGCAG | 9630 fluorescence intensity (a.u.)

Exported with tabs: part of the list above
Sequence	binding signal
CGGCGCTCGGTTACACACACAGCCGATCCTCACCGTCCGTCGGAGTCACCTAGTGCAG	9380 fluorescence intensity (a.u.)
GGTCTCCCGGCGCCGACCTCGGCTTCTTCCTCCACCTCTCCGGAGTCACCTAGTGCAG	9800 fluorescence intensity (a.u.)
GGCAACTACACAGGATCCTGACCTGAATTTTCAGATGGGGCGGAGTCACCTAGTGCAG	8990 fluorescence intensity (a.u.)
GGATTCCGCCCCTGGGTTGTTTATTGTGTGATTCTTTTTTCGGAGTCACCTAGTGCAG	9400 fluorescence intensity (a.u.)
ATGGAGATGGGGTGGGTTGGATTTGGATTGGATTTCTGCCCGGAGTCACCTAGTGCAG	16300 fluorescence intensity (a.u.)
TGTCAAACTACAACTTACTTTCTCGTTTTCTGTTAATATACGGAGTCACCTAGTGCAG	9230 fluorescence intensity (a.u.)
TCCTTGCTTATCAACACGTACGTTGCGTTTCTTGGCAATGCGGAGTCACCTAGTGCAG	8020 fluorescence intensity (a.u.)
GAGCGCTCTTCCCGCCAAATTTGGCTCGGCCGCGCGCGCCCGGAGTCACCTAGTGCAG	8340 fluorescence intensity (a.u.)
ATTCAATTTCCCCACCTACCTTCGCATCTCAACCAATCACCGGAGTCACCTAGTGCAG	9740 fluorescence intensity (a.u.)
GGAGACTTGTACCAGTACTTTTACCTAACCTCACAATACCCGGAGTCACCTAGTGCAG	9030 fluorescence intensity (a.u.)
ACCCACTAATCCAGCCAAGTAATGCCGATTTTTACCCCACCGGAGTCACCTAGTGCAG	8310 fluorescence intensity (a.u.)
TTTTTTTTTGTTATTGTGTTGCGTTTCCTCCTAGTAAACACGGAGTCACCTAGTGCAG	10100 fluorescence intensity (a.u.)
CCCCATCCGTCCCACTGACATCCCGGCCCCACCATACCGTCGGAGTCACCTAGTGCAG	8320 fluorescence intensity (a.u.)

The listing continues.

Sequence | binding signal
ACTTTTCTTCTGTAACTCCACAGCTACTTTACTCAACATCCGGAGTCACCTAGTGCAG | 8900 fluorescence intensity (a.u.)
GTCCCACCTTAATCATGGCCCACTGGTAAGTCTCTTAACGCGGAGTCACCTAGTGCAG | 8350 fluorescence intensity (a.u.)
TTGTAACTCTTTTTCTTGTTGAATATAATGTTGTTTGTTTCGGAGTCACCTAGTGCAG | 9490 fluorescence intensity (a.u.)
ATCTCTCCTCTCTATCTCTTTCTCATCTCCACCTCACCTCCGGAGTCACCTAGTGCAG | 10100 fluorescence intensity (a.u.)
TAGGTGTGTATGTTTGTGTTCATAGGCCTCGCTTATGGTGCGGAGTCACCTAGTGCAG | 8760 fluorescence intensity (a.u.)
GACAATTCAAATCTCCTAGCGCTCTACTACTTCTAGCACACGGAGTCACCTAGTGCAG | 8900 fluorescence intensity (a.u.)
ACTAGAATCTCACACATGACACATCCATCACATCACACACCGGAGTCACCTAGTGCAG | 9730 fluorescence intensity (a.u.)
CACACGCATTACTTAGGCCATGCTTCTTTCAGCTTAATATCGGAGTCACCTAGTGCAG | 10500 fluorescence intensity (a.u.)
GGTAAGCATCATACTGTTCGTTGTTGACTCAATGATCATCCGGAGTCACCTAGTGCAG | 9470 fluorescence intensity (a.u.)
GCATAACTGTGGTCTCCAACTTGCGACATGCAACTTTGAGCGGAGTCACCTAGTGCAG | 8090 fluorescence intensity (a.u.)
AGTCGGGGCTGCTTGTTGATGTGTTTATATACCGCGCGGCCGGAGTCACCTAGTGCAG | 10300 fluorescence intensity (a.u.)
GTGCAACAGTTTAATTTTTGGCGTTTTTTTTATCTTTCTGCGGAGTCACCTAGTGCAG | 9320 fluorescence intensity (a.u.)
TAGAGAAGAGACGAGAGGTTGGGGTGGGCGGCCGCGGGAGCGGAGTCACCTAGTGCAG | 9270 fluorescence intensity (a.u.)
AACATTCTTTGCAACAAATCAGCCACATATTATAGAAACCCGGAGTCACCTAGTGCAG | 8100 fluorescence intensity (a.u.)
ATGCTAATATTGTTTTCCTTTTCAGGAGTGTTCTCATACTCGGAGTCACCTAGTGCAG | 8270 fluorescence intensity (a.u.)
GGTCCACAGAGAAAATGGAATGGTGCGGGGTGGTGTTCTGCGGAGTCACCTAGTGCAG | 8160 fluorescence intensity (a.u.)
TATTTGTTTTTTTCCCACATTTCCACCCAACCCATCCATCCGGAGTCACCTAGTGCAG | 9870 fluorescence intensity (a.u.)
GTCGGAGTGGTTTGCCGTAGTTGTCTCTCGTTTTCGCTGTCGGAGTCACCTAGTGCAG | 8680 fluorescence intensity (a.u.)
TCCGTTCGCTATTTGGGTTGGTTGGGCTATAGAAAAGCCCCGGAGTCACCTAGTGCAG | 8520 fluorescence intensity (a.u.)
TGTATCTTCAGATTCTCTACTGGTCTTCTAAGTTTCATTCCGGAGTCACCTAGTGCAG | 8260 fluorescence intensity (a.u.)
CAGCACCGTCATCGTCGTCGTTGTCGCGCGTCACCGTGAACGGAGTCACCTAGTGCAG | 9390 fluorescence intensity (a.u.)

Sequence | binding signal
TCTCTCTCTCTCGACAAATCTCGTTCCCGGCTTCGTTTCCCGGAGTCACCTAGTGCAG | 10100 fluorescence intensity (a.u.)
CATCCACTGCAGTAACGGGAACGCGGACCTCGCCATCGTTCGGAGTCACCTAGTGCAG | 8640 fluorescence intensity (a.u.)
CCATCCGTGCGCCGTCCTTTTGCCGCCCGCGCGGGCCCCACGGAGTCACCTAGTGCAG | 11000 fluorescence intensity (a.u.)
TTTTTTTTCTGTTAGTACTGTTTTTGGTCCAAACATCTTTCGGAGTCACCTAGTGCAG | 8180 fluorescence intensity (a.u.)
ACTCTTTGGGCGTCTCCAGCTTCTAGTTACTTCGTCTCCTCGGAGTCACCTAGTGCAG | 9370 fluorescence intensity (a.u.)
TCTGGAGTTTGTGTTCTGTTGCTGCCGATGCCTTTCCTCACGGAGTCACCTAGTGCAG | 12700 fluorescence intensity (a.u.)
AACAGTTTAACTTTGACCAAAGTCAAAACATCTTATAACCCGGAGTCACCTAGTGCAG | 9750 fluorescence intensity (a.u.)
CTCTCCTCTTTCTTTTTTCCCTCTAGTGATAGGGCCATACCGGAGTCACCTAGTGCAG | 8320 fluorescence intensity (a.u.)
CTCGGGTGGGTTGCGGTTGAGCCACTTGGTGTGCCATCAACGGAGTCACCTAGTGCAG | 10600 fluorescence intensity (a.u.)
TTTCTACTCACTCCGTTTTTCTCAATGTAAATTATTCTAGCGGAGTCACCTAGTGCAG | 10300 fluorescence intensity (a.u.)
GGTACGTGTTCAATATGTTGCGCATATTTGATCTTTTCATCGGAGTCACCTAGTGCAG | 9920 fluorescence intensity (a.u.)
ACCCCGCCTCCGCCGCATTCAATCCATCGCCGCAACGACACGGAGTCACCTAGTGCAG | 10100 fluorescence intensity (a.u.)
CTTCACATGAGTATTTCTTGACCATGTATCAACATTTGTACGGAGTCACCTAGTGCAG | 9620 fluorescence intensity (a.u.)
AATTCGTTTAATATTTCGGACTTCATATTTCTGTTACTGCCGGAGTCACCTAGTGCAG | 8500 fluorescence intensity (a.u.)
CAGACATCAAATCATCTGTTTGTTATCCCTGGTGCTGTTTCGGAGTCACCTAGTGCAG | 8650 fluorescence intensity (a.u.)
GAACCCTTGAATTGCCCTGTTTTCCCATTGCTATGCTTTTCGGAGTCACCTAGTGCAG | 10200 fluorescence intensity (a.u.)
GTGTGAAATTGACATGTGGGTCCCATGGGTATTATTATTACGGAGTCACCTAGTGCAG | 9290 fluorescence intensity (a.u.)
TTATCTTAACGTGGCCCAACTCCTGCTCTTCTTCCTTTTCCGGAGTCACCTAGTGCAG | 8040 fluorescence intensity (a.u.)
ATCCCAAAATAATGTGTTCGGGTGGGCGGGCGGGAAATATCGGAGTCACCTAGTGCAG | 23000 fluorescence intensity (a.u.)
GTCTATTCAAATCAACCTTGGCCGCCGTCCTATCCACGGCCGGAGTCACCTAGTGCAG | 8080 fluorescence intensity (a.u.)
ATTGGGCTGGAATGAGATTCACGGGAGGGTAACTGGCGGTCGGAGTCACCTAGTGCAG | 12300 fluorescence intensity (a.u.)

Sequence | binding signal
CGTGCTCAACTTTGATCATTCATCTTATTTAAATTTTTTTCGGAGTCACCTAGTGCAG | 10300 fluorescence intensity (a.u.)
AACTCTCTCTCTCCAGCTCCACCTTCTCCGAGGCCGCCATCGGAGTCACCTAGTGCAG | 9790 fluorescence intensity (a.u.)
TTCTCCCGCTGACCACCTACCTATCTGTATTTGTAATTAACGGAGTCACCTAGTGCAG | 13300 fluorescence intensity (a.u.)
CTCCTTGGACGCGTTGTTTTTGCATACCCCTTTCGTTTCCCGGAGTCACCTAGTGCAG | 14700 fluorescence intensity (a.u.)
TAGATCGCCGCCGCCGCCGTCGTCTCCGCCCCTCTCCAGCCGGAGTCACCTAGTGCAG | 8940 fluorescence intensity (a.u.)
GACTGCGCCGTCGCCGCGCCAGCCCGGCCGCCTGCCCGCGCGGAGTCACCTAGTGCAG | 9810 fluorescence intensity (a.u.)
TTTGTGGTTTAGGGTCATGTATTAGATTTCGATCACTTTTCGGAGTCACCTAGTGCAG | 12200 fluorescence intensity (a.u.)
CATCAGTCGTTAGGGTCGGCACAGCATCTCCATTTTGCTACGGAGTCACCTAGTGCAG | 9850 fluorescence intensity (a.u.)
CCCTGCCTCTCTCTCGTCGCCGCTCGTCCACCGCTGCCTCCGGAGTCACCTAGTGCAG | 13800 fluorescence intensity (a.u.)
TTTGCCTCCTTGCATCCAACCTTCCCAATTGCCCAGTCTACGGAGTCACCTAGTGCAG | 9410 fluorescence intensity (a.u.)
AATAGTGGTGGTTGGTTATAAAGATTTGCTGCAATGTTTCCGGAGTCACCTAGTGCAG | 8620 fluorescence intensity (a.u.)
ACGAATTGGGAGGGGTAAAATGGCATAATGGTAATTAATACGGAGTCACCTAGTGCAG | 10900 fluorescence intensity (a.u.)
CGCACTAGAAGTTCTAACAACATCAGCTACTAGGGACCTTCGGAGTCACCTAGTGCAG | 8380 fluorescence intensity (a.u.)
CCTTTTGGCCGGGCACGGCTACCGCTTCTGAATTATACTACGGAGTCACCTAGTGCAG | 9810 fluorescence intensity (a.u.)
ACCTGTTTCGTTCGTCCACGCCAGCGCCAACCGGACATGACGGAGTCACCTAGTGCAG | 9460 fluorescence intensity (a.u.)
TAACACCATTGTCGCCCGGGACGCGCGCTCTTTCTCTCTCCGGAGTCACCTAGTGCAG | 12600 fluorescence intensity (a.u.)
TTTTATAACATGTTTGTTTTGTACTAATATTTATTTTTTCCGGAGTCACCTAGTGCAG | 9760 fluorescence intensity (a.u.)
ATATATAAACTGTGCAATTAATTTTTTTTATCTATATATTCGGAGTCACCTAGTGCAG | 9030 fluorescence intensity (a.u.)
TCCTTTCATTTTTCCTTCTCCTTCGCGTGAAAAACGGACGCGGAGTCACCTAGTGCAG | 9480 fluorescence intensity (a.u.)
GCTGTTAGTCCAGTGGCAGTTATGTTAGTTTCATACTGTTCGGAGTCACCTAGTGCAG | 10100 fluorescence intensity (a.u.)
TTATCTTGATTGACACGTGGTTTGTTGATGCAGATGGTTTCGGAGTCACCTAGTGCAG | 9290 fluorescence intensity (a.u.)
